For at least one entry, the source does not settle the construct or the ends of the probe.

This data set deals with p53D30 + GST-hdm2(1-188) (G-M) ternary complex (Homo sapiens). The data set can be described thus: EMSA. As to conditions: ternary p53D30-G-M-DNA complex, same binding buffer, 30 min 22 C; hdm2 binds via p53; purified recombinant protein; protein details: GST (S. japonicum, pGEX-2T) N-terminal on hdm2; label: 33P 5' end. In general terms: Mobility shift assays separate free from complexed probe on a gel.

For “AGCTTAGACATGCCTAGACATGCCTA / AGCTTAGGCATGTCTAGGCATGTCTA [p53 consensus site oligonucleotide I/II]”, the binding result was “binds”.
